# Laboratory results as given in the supplement of paper PMC12669797.
# This is a selection; strong and weak results do not stand in their true shares.
# Test system: ES2
# Assay: cell viability relative to DMSO control (MTS) (fraction of DMSO control); higher = more viable cells / less growth inhibition
# Settings: 10 µM; 48 h
# Procedure: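 SCADS inhibitor kit III (367 inhibitors) screened at 10 µM final concentration on TOV-21G (HNF-1ß positive) and ES2 (HNF-1ß negative) ovarian clear cell carcinoma cells seeded at 5000 cells/well in 96-well plates. Cell viability was read by MTS assay 48 h after compound addition and expressed relative to DMSO control wells (N=3).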
row,SMILES,cell viability
1,O=C1Nc2ccc(-c3cccnc3)cc2/C1=C/c1ccc[nH]1 [JAK3 Inhibitor VI],0.536
